Test results taken from article doi:10.1101/2024.09.27.615457 (bioRxiv, 2024).
No constants are given. Whether binding was seen depends on the method and setting. In cells and extracts the contact can be indirect. Some entries that bind do so weakly or less than the wild type. Sequences can lack the tags named with a protein.

Chains of the proteins cited; added tags and fusions are not shown.
UniProt Q9LET0: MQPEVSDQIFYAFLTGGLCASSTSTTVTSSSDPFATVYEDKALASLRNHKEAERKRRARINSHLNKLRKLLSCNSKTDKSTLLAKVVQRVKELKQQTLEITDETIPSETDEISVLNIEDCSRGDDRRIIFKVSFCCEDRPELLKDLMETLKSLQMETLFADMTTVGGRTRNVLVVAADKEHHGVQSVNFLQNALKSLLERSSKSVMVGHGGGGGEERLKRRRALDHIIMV

Target: T1, Flag-tagged HY5 (Arabidopsis) (UniProt O24646)
T1 sequence: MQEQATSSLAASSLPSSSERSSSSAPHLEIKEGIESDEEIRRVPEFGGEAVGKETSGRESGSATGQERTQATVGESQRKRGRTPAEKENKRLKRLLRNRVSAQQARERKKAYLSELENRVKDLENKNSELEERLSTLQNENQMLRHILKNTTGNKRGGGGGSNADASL
Experiment: co-IP

- binding: binds
Substance: HA-tagged bHLH107 (expressed in N. benthamiana) (from UniProt Q9LET0 1-230)
